# Results from PubChem BioAssay AID2288 (National Center for Advancing Translational Sciences (NCATS), 2010).
# In all, about 340,000 compounds went through this assay and fewer than 10 were called active. Listed are the inconclusive results; actives and inactives stand elsewhere. Calls follow the shape of the dose curve; as a rule, active = well fitted curve in the direction sought with a large enough effect; inconclusive = small, poorly fitted or top-dose-only effect, or another doubt; inactive = no such curve, though single readings can be large or run the other way.
# Experiment: qHTS Assay for Modulators of miRNAs and/orActivators of miR-21
# Conditions: HeLa miR-21 FLuc reporter, luciferase, 48 h
row,SMILES,Potency
1,O=[N+]([O-])c1cc([N+](=O)[O-])c(NCC2CCS(=O)(=O)C2)c([N+](=O)[O-])c1 (stereo unspecified),inconclusive: 14.7 µM
